These results are taken from paper PMC3873415, “A Non-Biological Method for Screening Active Components against Influenza Virus from Traditional Chinese Medicine by Coupling a LC Column with Oseltamivir Molecularly Imprinted Polymers” (PLoS ONE, 2013).

The first data set in a line: Affinitive separation on OSMIP-LC column (retention time, LC-MS). To be noted: OSMIP-LC column, control compound (Figure 3), MeOH-acetonitrile-formate acid 75:25:0.01, 0.075 ml/min. The arrangement: key to Affinity: with or without affinity to the prepared column was defined by “1” or “0” respectively; with or without affinity to the prepared column was defined by “1” or “0” respectively.
In the case of `O=C1CCC[C@@H]2[C@H]3CCC[N+]4([O-])CCC[C@@H](CN12)[C@@H]34` (stereo partly shown) [oxymatrine], the “Retention time (approximately)” value is reported as ~240 min (Figure 3B).
`O=C1CCC[C@@H]2[C@H]3CCC[N+]4([O-])CCC[C@H](CN12)[C@@H]34` (stereo partly shown) [oxysophoridine]: the “Retention time (approximately)” value is ~210 min (Figure 3D).

The same data set, now with this note: to the prepared OSMIP-LC column.
Consider `CCOC(=O)C1=C[C@@H](OC(CC)CC)[C@H](NC(C)=O)[C@@H](N)C1` [OS (template), Oseltamivir], for which the Affinity was determined as 1.
Regarding `CC(=O)Oc1ccccc1C(=O)O` [aspirin], the Affinity came to 0.
The compound `O=C(/C=C/c1ccc(O)c(O)c1)O[C@@H]1C[C@](O)(C(=O)O)C[C@@H](O)[C@H]1O` [chlorogenic acid] yielded an Affinity of 0.
For `O=C1CCC[C@@H]2[C@H]3CCCN4CCC[C@@H](CN12)[C@@H]34` [matrine], the Affinity stood at 1.
Regarding `O=C1CCC[C@@H]2[C@H]3CCC[N+]4([O-])CCC[C@@H](CN12)[C@@H]34` (stereo partly shown) [oxymatrine], the Affinity turned out to be 1.
`O=C1CCC[C@@H]2[C@H]3CCC[N+]4([O-])CCC[C@H](CN12)[C@@H]34` (stereo partly shown) [oxysophoridine] had an Affinity of 1.
For the compound `O=C1CCC[C@@H]2[C@H]3CCCN4CCC[C@H](CN12)[C@@H]34` [sophoridine], the Affinity was 1.

Test in the next data set: not given
To be noted: OSMIP-LC column; cited from earlier work.
On to `CCOC(=O)C1=C[C@@H](OC(CC)CC)[C@H](NC(C)=O)[C@@H](N)C1` [OS (template), Oseltamivir], for which the “Retention time (approximately)” value is about 140 min [30].
As for `CC(=O)Oc1ccccc1C(=O)O` [aspirin], the “Retention time (approximately)” value was about 35 min [30].
As for `O=C(/C=C/c1ccc(O)c(O)c1)O[C@@H]1C[C@](O)(C(=O)O)C[C@@H](O)[C@H]1O` [chlorogenic acid], the “Retention time (approximately)” value was about 35 min [30].

Still in this data set, the particulars now being: OSMIP-LC column; listed as OS; cited from earlier work.
`CCOC(=O)C1=C[C@@H](OC(CC)CC)[C@H](NC(C)=O)[C@@H](N)C1` [OS (template), Oseltamivir]: the “Retention time (approximately)” value is recorded as “about 140 min”.
